Assay results taken from the supplement of paper PMC10849652.
The list shows a part of the results.

Protein sequences, listed by entry. Tags and fused reporters are not part of them. Lines headed by an entry give the natural chain unless they say otherwise; changes in a name come on top.
UniProt Q9UJT0: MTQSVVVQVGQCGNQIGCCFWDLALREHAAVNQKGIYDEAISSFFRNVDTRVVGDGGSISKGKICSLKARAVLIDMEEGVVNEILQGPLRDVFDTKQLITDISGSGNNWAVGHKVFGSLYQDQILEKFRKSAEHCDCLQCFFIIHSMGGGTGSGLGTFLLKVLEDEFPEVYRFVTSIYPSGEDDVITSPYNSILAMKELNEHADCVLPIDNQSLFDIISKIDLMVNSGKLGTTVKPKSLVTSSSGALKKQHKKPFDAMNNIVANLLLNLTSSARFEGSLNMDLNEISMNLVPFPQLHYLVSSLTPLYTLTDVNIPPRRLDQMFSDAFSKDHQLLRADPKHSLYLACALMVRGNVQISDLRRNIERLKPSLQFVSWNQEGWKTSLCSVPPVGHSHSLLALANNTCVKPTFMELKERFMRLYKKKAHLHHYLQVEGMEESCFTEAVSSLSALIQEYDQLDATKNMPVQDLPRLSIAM
UniProt P0CG48, whole entry, looked up: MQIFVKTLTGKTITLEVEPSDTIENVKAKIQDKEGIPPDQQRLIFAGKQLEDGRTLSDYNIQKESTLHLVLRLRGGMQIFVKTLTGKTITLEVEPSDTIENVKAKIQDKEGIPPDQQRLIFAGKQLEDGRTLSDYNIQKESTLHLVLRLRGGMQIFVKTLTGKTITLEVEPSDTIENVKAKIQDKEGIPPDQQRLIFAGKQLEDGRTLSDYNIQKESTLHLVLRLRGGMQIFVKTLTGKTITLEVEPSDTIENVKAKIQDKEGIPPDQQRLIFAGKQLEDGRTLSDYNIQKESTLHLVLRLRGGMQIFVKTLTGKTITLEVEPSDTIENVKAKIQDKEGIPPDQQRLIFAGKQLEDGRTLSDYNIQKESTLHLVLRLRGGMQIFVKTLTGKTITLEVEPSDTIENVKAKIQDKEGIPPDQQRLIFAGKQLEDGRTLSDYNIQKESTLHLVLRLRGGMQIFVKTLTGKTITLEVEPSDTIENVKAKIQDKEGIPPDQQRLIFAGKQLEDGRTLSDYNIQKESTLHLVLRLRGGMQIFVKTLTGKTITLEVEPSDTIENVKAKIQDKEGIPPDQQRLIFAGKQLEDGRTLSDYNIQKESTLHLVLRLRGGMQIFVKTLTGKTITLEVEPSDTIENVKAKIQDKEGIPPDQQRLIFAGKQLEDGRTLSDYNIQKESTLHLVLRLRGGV
UniProt Q712K3: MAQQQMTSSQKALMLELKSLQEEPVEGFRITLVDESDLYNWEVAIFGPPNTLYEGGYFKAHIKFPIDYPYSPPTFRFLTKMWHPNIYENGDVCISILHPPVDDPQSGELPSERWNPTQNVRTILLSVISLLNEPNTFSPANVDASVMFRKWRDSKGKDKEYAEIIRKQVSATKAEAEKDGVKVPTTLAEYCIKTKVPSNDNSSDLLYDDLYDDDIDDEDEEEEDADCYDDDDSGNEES
UniProt Q96RT7, whole entry, looked up: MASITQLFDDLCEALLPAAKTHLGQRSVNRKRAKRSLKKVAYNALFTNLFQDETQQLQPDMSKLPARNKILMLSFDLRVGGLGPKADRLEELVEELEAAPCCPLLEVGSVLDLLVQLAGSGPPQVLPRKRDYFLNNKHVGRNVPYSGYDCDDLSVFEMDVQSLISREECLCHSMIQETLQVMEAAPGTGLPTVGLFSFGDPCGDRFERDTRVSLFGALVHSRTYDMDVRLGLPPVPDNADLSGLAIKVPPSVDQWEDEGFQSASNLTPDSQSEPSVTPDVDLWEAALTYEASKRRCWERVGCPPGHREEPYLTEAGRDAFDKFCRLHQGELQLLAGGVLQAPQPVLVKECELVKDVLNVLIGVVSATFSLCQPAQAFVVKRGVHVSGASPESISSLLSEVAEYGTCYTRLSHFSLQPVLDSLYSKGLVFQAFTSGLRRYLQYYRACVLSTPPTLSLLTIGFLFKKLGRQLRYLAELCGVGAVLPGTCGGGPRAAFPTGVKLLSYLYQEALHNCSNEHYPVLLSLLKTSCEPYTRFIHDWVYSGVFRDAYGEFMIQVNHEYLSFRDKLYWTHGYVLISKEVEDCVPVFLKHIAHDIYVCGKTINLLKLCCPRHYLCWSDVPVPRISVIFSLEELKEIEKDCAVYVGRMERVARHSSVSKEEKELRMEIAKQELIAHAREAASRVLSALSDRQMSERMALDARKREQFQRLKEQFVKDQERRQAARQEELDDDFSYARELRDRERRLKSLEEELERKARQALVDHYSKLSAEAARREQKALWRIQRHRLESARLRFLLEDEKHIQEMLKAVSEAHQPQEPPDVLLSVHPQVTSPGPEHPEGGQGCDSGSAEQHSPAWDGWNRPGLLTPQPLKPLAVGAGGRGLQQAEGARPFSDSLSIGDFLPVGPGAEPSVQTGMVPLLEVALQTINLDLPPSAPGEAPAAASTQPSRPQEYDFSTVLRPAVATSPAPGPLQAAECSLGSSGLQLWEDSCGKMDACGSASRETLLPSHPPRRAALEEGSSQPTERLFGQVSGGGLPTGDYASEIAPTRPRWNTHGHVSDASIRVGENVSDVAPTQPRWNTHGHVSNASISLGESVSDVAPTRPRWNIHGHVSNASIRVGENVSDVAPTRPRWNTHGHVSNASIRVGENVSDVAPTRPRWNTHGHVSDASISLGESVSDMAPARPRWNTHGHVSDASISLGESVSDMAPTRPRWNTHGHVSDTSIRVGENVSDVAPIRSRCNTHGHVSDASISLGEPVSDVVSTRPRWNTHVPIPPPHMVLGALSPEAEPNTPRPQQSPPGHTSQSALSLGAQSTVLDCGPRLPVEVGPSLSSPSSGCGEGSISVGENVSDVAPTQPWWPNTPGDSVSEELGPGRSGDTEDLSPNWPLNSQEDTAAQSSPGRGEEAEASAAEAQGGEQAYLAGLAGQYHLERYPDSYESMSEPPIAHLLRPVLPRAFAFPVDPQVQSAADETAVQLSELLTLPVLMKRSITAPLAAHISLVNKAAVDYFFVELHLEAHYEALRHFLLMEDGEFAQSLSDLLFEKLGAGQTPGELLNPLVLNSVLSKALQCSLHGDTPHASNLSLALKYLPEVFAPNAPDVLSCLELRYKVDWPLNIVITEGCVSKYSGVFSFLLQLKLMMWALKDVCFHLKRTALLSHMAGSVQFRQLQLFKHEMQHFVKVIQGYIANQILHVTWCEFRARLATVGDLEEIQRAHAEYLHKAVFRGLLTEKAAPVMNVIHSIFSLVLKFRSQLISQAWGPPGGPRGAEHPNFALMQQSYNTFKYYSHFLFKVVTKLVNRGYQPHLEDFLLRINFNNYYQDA
UniProt Q969T4: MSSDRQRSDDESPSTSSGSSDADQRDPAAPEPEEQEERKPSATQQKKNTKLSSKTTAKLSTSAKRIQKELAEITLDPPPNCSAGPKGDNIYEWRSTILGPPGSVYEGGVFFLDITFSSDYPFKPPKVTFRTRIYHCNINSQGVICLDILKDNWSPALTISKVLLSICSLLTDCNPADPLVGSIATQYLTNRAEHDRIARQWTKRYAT
UniProt Q9NUQ3: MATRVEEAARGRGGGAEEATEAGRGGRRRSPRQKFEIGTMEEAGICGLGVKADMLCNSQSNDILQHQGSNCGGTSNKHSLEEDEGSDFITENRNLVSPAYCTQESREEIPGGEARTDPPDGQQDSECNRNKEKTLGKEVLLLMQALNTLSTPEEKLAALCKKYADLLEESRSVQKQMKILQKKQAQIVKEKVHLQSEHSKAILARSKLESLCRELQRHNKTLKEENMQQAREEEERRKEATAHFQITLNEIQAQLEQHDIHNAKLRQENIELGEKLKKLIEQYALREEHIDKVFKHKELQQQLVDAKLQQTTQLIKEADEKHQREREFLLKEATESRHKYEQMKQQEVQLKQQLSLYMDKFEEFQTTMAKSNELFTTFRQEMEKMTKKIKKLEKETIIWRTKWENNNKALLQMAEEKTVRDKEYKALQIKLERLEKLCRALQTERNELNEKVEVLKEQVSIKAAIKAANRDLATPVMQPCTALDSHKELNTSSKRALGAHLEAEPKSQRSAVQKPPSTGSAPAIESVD
UniProt Q9NZI7: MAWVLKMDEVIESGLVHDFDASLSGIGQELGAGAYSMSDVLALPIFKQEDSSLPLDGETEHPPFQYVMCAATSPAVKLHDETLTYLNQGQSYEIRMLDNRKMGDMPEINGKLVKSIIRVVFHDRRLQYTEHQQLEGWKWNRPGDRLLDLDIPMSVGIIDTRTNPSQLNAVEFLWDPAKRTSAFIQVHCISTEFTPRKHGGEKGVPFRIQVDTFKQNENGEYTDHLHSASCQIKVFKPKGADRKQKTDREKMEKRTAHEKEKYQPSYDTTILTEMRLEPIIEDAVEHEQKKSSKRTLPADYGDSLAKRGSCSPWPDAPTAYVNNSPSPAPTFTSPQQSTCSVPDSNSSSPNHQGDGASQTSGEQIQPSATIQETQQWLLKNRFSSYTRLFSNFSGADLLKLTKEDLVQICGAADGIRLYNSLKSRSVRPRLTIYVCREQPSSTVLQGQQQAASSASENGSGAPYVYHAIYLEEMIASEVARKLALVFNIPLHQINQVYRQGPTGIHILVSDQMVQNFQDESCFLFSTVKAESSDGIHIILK
UniProt Q99757: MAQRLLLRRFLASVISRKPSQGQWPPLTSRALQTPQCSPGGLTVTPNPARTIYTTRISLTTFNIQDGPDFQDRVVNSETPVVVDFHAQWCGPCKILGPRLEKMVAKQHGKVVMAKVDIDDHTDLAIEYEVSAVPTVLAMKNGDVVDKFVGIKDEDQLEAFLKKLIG
UniProt P68543: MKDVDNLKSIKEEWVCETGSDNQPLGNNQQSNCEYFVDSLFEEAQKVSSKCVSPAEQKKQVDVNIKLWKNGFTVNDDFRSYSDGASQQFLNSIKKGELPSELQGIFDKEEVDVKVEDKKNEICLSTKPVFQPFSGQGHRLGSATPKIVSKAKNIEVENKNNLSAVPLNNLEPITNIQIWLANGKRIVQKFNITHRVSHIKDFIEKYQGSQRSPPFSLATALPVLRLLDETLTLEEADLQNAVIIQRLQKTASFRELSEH
UniProt Q9Y5Z9: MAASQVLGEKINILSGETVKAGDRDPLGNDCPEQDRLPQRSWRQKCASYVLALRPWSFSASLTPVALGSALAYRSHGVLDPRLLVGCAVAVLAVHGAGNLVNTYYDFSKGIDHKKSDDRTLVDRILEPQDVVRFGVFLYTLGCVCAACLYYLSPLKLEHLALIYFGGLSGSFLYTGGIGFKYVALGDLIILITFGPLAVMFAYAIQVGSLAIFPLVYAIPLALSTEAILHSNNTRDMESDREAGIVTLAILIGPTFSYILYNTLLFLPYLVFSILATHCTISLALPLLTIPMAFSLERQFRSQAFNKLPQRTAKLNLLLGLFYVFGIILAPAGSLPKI
UniProt Q9BTX7: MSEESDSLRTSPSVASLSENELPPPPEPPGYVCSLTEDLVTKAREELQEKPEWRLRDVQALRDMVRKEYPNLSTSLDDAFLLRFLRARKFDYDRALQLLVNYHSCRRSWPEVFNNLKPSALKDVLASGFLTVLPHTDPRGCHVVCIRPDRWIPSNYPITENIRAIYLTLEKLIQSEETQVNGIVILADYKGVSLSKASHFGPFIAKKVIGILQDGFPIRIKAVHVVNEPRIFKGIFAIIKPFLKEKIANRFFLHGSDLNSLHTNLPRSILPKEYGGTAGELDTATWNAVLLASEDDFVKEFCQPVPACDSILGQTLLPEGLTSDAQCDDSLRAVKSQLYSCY
UniProt Q3B726, whole entry, looked up: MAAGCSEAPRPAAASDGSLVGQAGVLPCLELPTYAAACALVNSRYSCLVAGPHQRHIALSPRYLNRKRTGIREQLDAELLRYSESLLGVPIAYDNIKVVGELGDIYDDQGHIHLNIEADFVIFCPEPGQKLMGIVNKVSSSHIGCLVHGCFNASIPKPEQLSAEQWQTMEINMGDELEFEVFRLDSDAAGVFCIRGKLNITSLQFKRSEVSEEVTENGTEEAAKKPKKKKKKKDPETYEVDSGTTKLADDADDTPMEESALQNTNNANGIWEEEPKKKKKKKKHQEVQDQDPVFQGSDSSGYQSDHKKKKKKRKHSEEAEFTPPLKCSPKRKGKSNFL
UniProt Q96LJ8: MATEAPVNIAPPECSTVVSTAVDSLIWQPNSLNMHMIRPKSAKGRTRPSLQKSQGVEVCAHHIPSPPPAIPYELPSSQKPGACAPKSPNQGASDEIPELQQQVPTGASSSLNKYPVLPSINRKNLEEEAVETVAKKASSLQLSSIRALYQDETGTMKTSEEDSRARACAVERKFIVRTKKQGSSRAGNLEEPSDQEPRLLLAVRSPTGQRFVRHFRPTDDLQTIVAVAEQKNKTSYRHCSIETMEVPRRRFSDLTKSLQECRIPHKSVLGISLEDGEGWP
UniProt Q04323: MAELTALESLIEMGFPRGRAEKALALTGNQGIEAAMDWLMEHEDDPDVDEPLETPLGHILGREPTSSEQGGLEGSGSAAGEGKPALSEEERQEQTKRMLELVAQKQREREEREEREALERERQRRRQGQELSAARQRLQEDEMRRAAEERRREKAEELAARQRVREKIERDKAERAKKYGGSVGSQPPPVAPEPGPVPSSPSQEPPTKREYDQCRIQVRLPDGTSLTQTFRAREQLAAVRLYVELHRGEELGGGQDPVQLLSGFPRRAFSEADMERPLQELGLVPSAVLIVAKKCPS

How the values were obtained:
Experiment in all cases: log2 fold change, soluble protein after heating vs DMSO (PISA); higher = thermal stabilisation; K562 lysate, 10 uM; active = over 0.2 and 3.5 SD of the protein, either way, in both replicates (recomputed)
vemurafenib = compound: CCCS(=O)(=O)Nc1ccc(F)c(C(=O)c2c[nH]c3ncc(-c4ccc(Cl)cc4)cc23)c1F [vemurafenib]
Summary of the method: (§1)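 To prepare the extract, K562 pellets were dounce-homogenised in PBS pH 7.4 with 1 mM MgCl2, giving crude material at 1 mg/mL protein. This was treated with 10 μM compound for 30 min, then heated in aliquots for 3 min over 48°C-58°C before pooling and addition of NP-40 to 0.5% at 4°C. Centrifugation at 21,000xg for 90 min left soluble protein in the supernatant, which TMTpro 16plex LC-MS/MS quantified with equalised channel sums. Results are log-two fold changes in thermal stability compared with solvent controls, from duplicates.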

[1] = compound: CCCS(=O)(=O)Nc1ccc(F)c(C(=O)c2c[nH]c3ncc(Cl)cc23)c1F
Summary of the method: as §1

barasertib = compound: CCN(CCCOc1ccc2c(Nc3cc(CC(=O)Nc4cccc(F)c4)[nH]n3)ncnc2c1)CCOP(=O)(O)O [barasertib]
Summary of the method: as §1

[2] = compound: CC[C@@H]1C(=O)N(C)c2cnc(Nc3ccc(C(=O)NC4CCN(C)CC4)cc3OC)nc2N1C1CCCC1
Summary of the method: as §1

volasertib = compound: CC[C@@H]1C(=O)N(C)c2cnc(Nc3ccc(C(=O)N[C@H]4CC[C@H](N5CCN(CC6CC6)CC5)CC4)cc3OC)nc2N1C(C)C [volasertib]
Summary of the method: as §1

[3] = compound: CCn1c(C(=O)N(C2CC2)C2CC2)cc2c3c(ncn3C)c(Nc3cc(C)n(C)n3)nc21
Summary of the method: as §1

[4] = compound: CCn1cc(-c2ccnc3[nH]c(-c4cccc(CN(C)C)c4)cc23)c(-c2ccc(NC(=O)N(C)C)cc2)n1
Summary of the method: as §1

[5] = compound: CN1CCC(CNc2ccc3ncc(-c4cccc(OC(F)(F)F)c4)n3n2)CC1
Summary of the method: as §1

saracatinib = compound: CN1CCN(CCOc2cc(OC3CCOCC3)c3c(Nc4c(Cl)ccc5c4OCO5)ncnc3c2)CC1 [saracatinib]
Summary of the method: as §1

sotrastaurin = compound: CN1CCN(c2nc(C3=C(c4c[nH]c5ccccc45)C(=O)NC3=O)c3ccccc3n2)CC1 [sotrastaurin]
Summary of the method: as §1

Target	log2 fold change (vemurafenib)	log2 fold change [1]	log2 fold change (barasertib)	log2 fold change [2]	log2 fold change (volasertib)	log2 fold change [3]	log2 fold change [4]	log2 fold change [5]	log2 fold change (saracatinib)	log2 fold change (sotrastaurin)
TUBE1 (UniProt Q9UJT0)	inactive: 0.036	inactive: 0.012	inactive: 0.03	inactive: 0.112	inactive: -0.005	inactive: 0.028	inactive: 0.257	inactive: -0.082	inactive: 0.089	inactive: 0.043
UBC (UniProt P0CG48)	inactive: -0.01	inactive: -0.018	inactive: -0.013	inactive: 0.034	inactive: 0.035	inactive: -0.002	inactive: 0.064	inactive: -0.07	inactive: 0.008	inactive: -0.022
UBE3D (UniProt Q7Z6J8)	inactive: 0.089	inactive: -0.043	inactive: 0.006	inactive: 0.057	inactive: 0.035	inactive: -0.066	inactive: -0.043	inactive: 0.086	inactive: -0.054	inactive: 0.03
UBE2Q1 (UniProt Q7Z7E8)	inactive: 0	inactive: 0.03	inactive: -0.005	inactive: -0.004	inactive: 0.015	inactive: -0.018	inactive: 0.011	inactive: 0.03	inactive: -0.014	inactive: -0.01
UBE2R2 (UniProt Q712K3)	inactive: 0.035	inactive: -0.035	inactive: 0.02	inactive: 0.036	inactive: 0.002	inactive: 0.024	inactive: -0.013	inactive: -0.008	inactive: 0.022	inactive: 0.003
TUBGCP6 (UniProt Q96RT7)	inactive: -0.058	inactive: -0.046	inactive: 0.025	inactive: -0.062	inactive: -0.032	inactive: -0.13	inactive: -0.218	inactive: 0.031	inactive: -0.024	inactive: -0.002
UBE2E3 (UniProt Q969T4)	inactive: 0.106	inactive: -0.05	inactive: 0.019	inactive: 0.02	inactive: 0.016	inactive: -0.024	inactive: -0.014	inactive: -0.016	inactive: -0.012	inactive: 0.037
UBQLN2 (UniProt Q9UHD9)	inactive: -0.01	inactive: 0.004	inactive: 0.315	inactive: 0.006	inactive: 0.001	inactive: -0.018	inactive: -0.065	inactive: 0.002	inactive: 0.013	inactive: 0.036
TXNL4A (UniProt P83876)	inactive: -0.009	inactive: 0.008	inactive: -0.026	inactive: 0.028	inactive: -0.009	inactive: -0.013	inactive: -0.151	inactive: 0.033	inactive: -0.005	inactive: 0
TUBA4A (UniProt P68366)	inactive: 0.003	inactive: -0.045	inactive: 0.028	inactive: -0.023	inactive: -0.056	inactive: 0.033	inactive: -0.05	inactive: 0.003	inactive: -0.036	inactive: -0.039
UBE2O (UniProt Q9C0C9)	inactive: 0.075	inactive: 0.018	inactive: 0	inactive: 0.076	inactive: 0.007	inactive: -0.06	inactive: -0.12	inactive: 0.041	inactive: 0.02	inactive: -0.003
TXLNG (UniProt Q9NUQ3)	inactive: 0.001	inactive: 0.008	inactive: -0.002	inactive: 0.028	inactive: -0.001	inactive: 0.008	inactive: -0.025	inactive: 0.02	inactive: 0.006	inactive: 0.008
TUBGCP4 (UniProt Q9UGJ1)	inactive: 0.088	inactive: 0.028	inactive: 0.116	inactive: 0.039	inactive: -0.027	inactive: 0.026	inactive: 0.013	inactive: -0.077	inactive: 0.025	inactive: 0.109
UBP1 (UniProt Q9NZI7)	inactive: -0.014	inactive: 0.117	inactive: 0.008	inactive: 0.01	inactive: -0.017	inactive: 0.007	active: 0.228	inactive: -0.24	inactive: -0.008	inactive: -0.063
UBR3 isoform 4 (UniProt Q6ZT12)	inactive: 0.035	inactive: -0.001	inactive: 0.026	inactive: -0.033	inactive: -0.091	inactive: -0.011	inactive: -0.015	inactive: -0.044	inactive: 0.044	inactive: 0.009
TXN2 (UniProt Q99757)	inactive: 0.034	inactive: -0.05	inactive: 0.072	inactive: 0.046	inactive: 0.022	inactive: -0.051	inactive: -0.156	inactive: 0.001	inactive: -0.045	inactive: -0.026

Target	log2 fold change (vemurafenib)	log2 fold change [1]	log2 fold change (barasertib)	log2 fold change [2]	log2 fold change (volasertib)	log2 fold change [3]	log2 fold change [4]	log2 fold change [5]	log2 fold change (saracatinib)	log2 fold change (sotrastaurin)
UBXN2A (UniProt P68543)	inactive: -0.016	inactive: 0.05	inactive: -0.106		inactive: 0.088	inactive: -0.053	inactive: -0.056	inactive: 0.118	inactive: -0.01	inactive: -0.005
UBE2J1 (UniProt Q9Y385)	inactive: 0.159	inactive: -0.008	inactive: 0.059	inactive: 0.147	inactive: -0.021	inactive: -0.04	inactive: 0.075	inactive: -0.012	inactive: 0.084	inactive: -0.026
UBIAD1 (UniProt Q9Y5Z9)	inactive: -0.004	inactive: 0.043		inactive: 0.005	inactive: 0.046	inactive: -0.083	inactive: 0.045	inactive: -0.335	inactive: -0.036	inactive: -0.079
TTPAL (UniProt Q9BTX7)	inactive: 0.017	inactive: 0	inactive: 0.027	inactive: 0.059	inactive: 0.003	inactive: -0.002	inactive: -0.153	inactive: 0.01	inactive: -0.017	inactive: -0.024
TWISTNB (UniProt Q3B726)	inactive: 0.079	inactive: 0.077	inactive: -0.055	inactive: 0.023	inactive: -0.049	inactive: 0.006	inactive: 0.162	inactive: -0.05	inactive: 0.033	inactive: -0.019
UBE2I (UniProt H3BQQ9)	inactive: 0.128	inactive: 0.241	inactive: 0.145		inactive: -0.049	inactive: -0.096	inactive: -0.244	inactive: 0.224	inactive: -0.075	inactive: -0.026
UBE2W isoform 3 (UniProt Q96B02)	inactive: -0.013		inactive: 0.065							
UBXN10 (UniProt Q96LJ8)	inactive: 0.008	inactive: -0.089	inactive: -0.133	inactive: 0.095	inactive: 0.074	inactive: 0.01	inactive: -0.082	inactive: 0.021	inactive: -0.016	inactive: -0.012
UBE4B isoform 4 (UniProt O95155)	inactive: 0.022	inactive: 0.009	inactive: 0.029	inactive: 0.026	inactive: -0.025	inactive: 0.011	inactive: -0.007	inactive: -0.003	inactive: 0.007	inactive: -0.012
UCHL5 (UniProt Q5LJA9)	inactive: -0.021	inactive: -0.061	inactive: -0.01	inactive: -0.103	inactive: 0.03	inactive: -0.108	inactive: 0.019	inactive: 0	inactive: 0.023	inactive: 0.007
TUFM (UniProt P49411)	inactive: 0.021	inactive: 0.027	inactive: 0.044	inactive: -0.081	inactive: -0.073	inactive: 0.017	inactive: 0.07	inactive: -0.074	inactive: 0.022	inactive: 0.007
U2AF2 (UniProt K7ELP8)	inactive: -0.206	inactive: -0.036		inactive: 0.192	inactive: 0.086		inactive: 0.074	inactive: -0.17		
UBE2K (UniProt D6RDM7)	inactive: 0.13	inactive: -0.075		inactive: -0.124	inactive: 0.214					
UBAC2 (UniProt Q8NBM4)	inactive: -0.018	inactive: -0.122	inactive: 0.03	inactive: 0.242	inactive: -0.157	inactive: -0.01	inactive: 0.027	inactive: -0.063	inactive: 0.094	inactive: 0.032
UBXN1 (UniProt Q04323)	inactive: 0.005	inactive: 0.018	inactive: -0.04	inactive: 0.024	inactive: 0.032	inactive: 0.01	inactive: -0.058	inactive: 0.063	inactive: 0	inactive: 0.03

In another format: entries from further up
Target | log2 fold change (vemurafenib) | log2 fold change [1] | log2 fold change (barasertib) | log2 fold change [2] | log2 fold change (volasertib) | log2 fold change [3] | log2 fold change [4] | log2 fold change [5] | log2 fold change (saracatinib) | log2 fold change (sotrastaurin)
TWISTNB (UniProt Q3B726) | inactive: 0.079 | inactive: 0.077 | inactive: -0.055 | inactive: 0.023 | inactive: -0.049 | inactive: 0.006 | inactive: 0.162 | inactive: -0.05 | inactive: 0.033 | inactive: -0.019
UBE2I (UniProt H3BQQ9) | inactive: 0.128 | inactive: 0.241 | inactive: 0.145 |  | inactive: -0.049 | inactive: -0.096 | inactive: -0.244 | inactive: 0.224 | inactive: -0.075 | inactive: -0.026
